In paper PMC6193001:
Results are given in words; binding and its absence hold for the method and conditions named. Binding seen in cells or lysates may run through a third protein. Some binding calls cover weakened binding; strength is not graded here.

Biological target: T1, serine protease inhibitor Kazal type I (SPINK1) (human) (UniProt P00995)
T1 sequence: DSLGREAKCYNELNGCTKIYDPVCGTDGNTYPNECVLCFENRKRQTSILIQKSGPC
Test: co-IP; anti-SPINK1 antibody (Abnova, 4 ug) added to cleared whole cell lysates of PC3 cells treated for 3 days by the CM of PSC27 sublines; lysis buffer 40 mM HEPES pH 7.5, 120 mM NaCl, 1 mM EDTA, 0.3% CHAPS; protein A/G-agarose, 4 °C; immunoblot of EGFR and SPINK1

binding: binds
Substance: EGFR (from UniProt P00533 25-1210) (receptor)
